The list shows a part of the results.

Amino acid sequences for entries named in this document (tags omitted).
UniProt Q0JBA9, entry or part of it: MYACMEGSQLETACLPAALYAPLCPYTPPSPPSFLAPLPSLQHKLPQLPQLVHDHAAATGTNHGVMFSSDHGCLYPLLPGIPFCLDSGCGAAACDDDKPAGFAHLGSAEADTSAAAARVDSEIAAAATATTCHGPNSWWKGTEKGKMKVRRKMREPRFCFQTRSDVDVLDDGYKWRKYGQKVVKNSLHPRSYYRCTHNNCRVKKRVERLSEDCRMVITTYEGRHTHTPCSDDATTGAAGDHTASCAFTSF

The target in the assay is OsWRKY34 (Oryza sativa, UniProt Q0JBA9 1-250). As to the kind of experiment: protein-binding microarray (RPBM); PBS, 2% BSA, 51.3 ng/ul salmon testes DNA, 50 uM zinc acetate, 200 nM TF, 25 C, 1 h; high values mean tight binding. Particulars: protein: recombinant; tags: N-terminal polyhistidine and DsRed monomer fusion (pET32a); label: CyDye5-dUTP incorporated in the synthesized complementary strand; 3' TTTTT single-stranded linker to array surface; dsDNA, one strand shown. A digest of the protocol: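 Per-feature fluorescence intensity (arbitrary units), read on an Axon 4000B scanner, is the binding signal. Transcription factors carrying an N-terminal polyhistidine tag and DsRed fusion were expressed in E. coli BL21-CodonPlus and purified on Ni–NTA. A custom Agilent array, made double-stranded by primer extension with Cy5-dUTP and blocked with 2% BSA, was incubated with 200 nM protein in PBS, 2% BSA, salmon testes DNA and 50 µM zinc acetate at 25 °C for 1 h and then washed.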
Consider “ACAGCTAAATCGCACGCACACCACAGTCTACAGCATCTCTCGGAGTCACCTAGTGCAG”, for which the binding signal was 9550 fluorescence intensity (a.u.). In the case of “CTCGATTTTCTCACTCAAATTTACAGTGCATTTTCTTGTACGGAGTCACCTAGTGCAG”, the binding signal is 9540 fluorescence intensity (a.u.). On to “TATGTATAACTAGGTTGACTTTTTTTTCTCTCTCTCAAAACGGAGTCACCTAGTGCAG”, for which the binding signal was 10400 fluorescence intensity (a.u.). Consider “CTTCCGCCCCGCCGGCGCCCTCGCTTCGCTGTCCGCTGTGCGGAGTCACCTAGTGCAG”, for which the binding signal is 9230 fluorescence intensity (a.u.). For “GGTTGATGCATGCCTTTTCTTCCGCCGTTTAAAGATCCAACGGAGTCACCTAGTGCAG”, the binding signal is 9960 fluorescence intensity (a.u.). As for “CACTAGTTTTAGTTACTAACTTATGGCTCTTGTGCTATCACGGAGTCACCTAGTGCAG”, the binding signal was 8070 fluorescence intensity (a.u.). For the sequence “TATTTCCTTTTTTCCATGTTTTTGAATTCCTACTTTCATACGGAGTCACCTAGTGCAG”, the binding signal was 9900 fluorescence intensity (a.u.). For “CCAATTCCCGCGCTTATATATATATCCCTCGCCTTCGCCTCGGAGTCACCTAGTGCAG”, the binding signal was 8690 fluorescence intensity (a.u.). As for “TTTTCCTGTATTTTCTAATCATCTGTTTTACACTTATATTCGGAGTCACCTAGTGCAG”, the binding signal was 11700 fluorescence intensity (a.u.). “AACCAGGCGTTTGATGTGGGCAAGGGAACAAGGTATTATTCGGAGTCACCTAGTGCAG”: the binding signal is 8070 fluorescence intensity (a.u.). The same measure for “CTCTCCGTCGTTTGCCGCTCATCCTCCTGTCCCGACACACCGGAGTCACCTAGTGCAG”: 11700 fluorescence intensity (a.u.); for “TTTTCAGCGTCCAACTTTTTTAACCGTCTGTCCGTCTTATCGGAGTCACCTAGTGCAG”: 12200 fluorescence intensity (a.u.); for “GTTTGTTTTCTCTGAATCTCTGCATCCCGCTCTGTCTATGCGGAGTCACCTAGTGCAG”: 10300 fluorescence intensity (a.u.). Regarding “TTTGAGTTGACTTCATTTTGAAAAATACAAACTTAGCTTTCGGAGTCACCTAGTGCAG”, the binding signal is 8210 fluorescence intensity (a.u.). Then “ACATAACGTCTCTTCTTCCGCTGACCACACGGTCCCACCCCGGAGTCACCTAGTGCAG”, with 9200 fluorescence intensity (a.u.). For the sequence “TCTTCTTCCAGACCGACTCGTTGGTCCTTTTATTGCCACTCGGAGTCACCTAGTGCAG”, the binding signal is 8760 fluorescence intensity (a.u.).

Consider “TCTCTTTGTTCTTTTCTTAAGCAAAGATTGTTTTTTTCCCCGGAGTCACCTAGTGCAG”, for which the binding signal is 8250 fluorescence intensity (a.u.). With “GATATCACAACCTGACCCACATTAGTCACACGCACTCACACGGAGTCACCTAGTGCAG”, the binding signal was 11200 fluorescence intensity (a.u.). Regarding “CAATCGATCCCTTCCATTCTTCTTCCAACCGGCCAACGCGCGGAGTCACCTAGTGCAG”, the binding signal is 8070 fluorescence intensity (a.u.). On to “CTCCAACTGTGAGTTTCTGTTCAGGTCATCCCCTGATTTTCGGAGTCACCTAGTGCAG”, for which the binding signal was 8060 fluorescence intensity (a.u.). The same measure for “GAATGACGAGCTGGTCACTGGTCACTGGTCAGCCGAGGAACGGAGTCACCTAGTGCAG”: 8120 fluorescence intensity (a.u.); for “CTCTTGAACGTTGTCGCCCGCCGTTTCCCGCCGCTGTCTCCGGAGTCACCTAGTGCAG”: 18200 fluorescence intensity (a.u.); for “GGGAAAGGCTGTAGGAATATATCACCACCTGTCATCATCACGGAGTCACCTAGTGCAG”: 9180 fluorescence intensity (a.u.). On to “CCCTACGTGCACACATCCAGCTCCATTATATAGCCATTTTCGGAGTCACCTAGTGCAG”, for which the binding signal was 8970 fluorescence intensity (a.u.).

For “CCTCACCCGCCTCGCCGTCTTCCACCCGTGCGTGCGTCCCCGGAGTCACCTAGTGCAG”, the binding signal is 8350 fluorescence intensity (a.u.).

Turning to “TGCACGGCGCACCTGCGAATGATCTGGCCACCGCCACCGACGGAGTCACCTAGTGCAG”, the binding signal was 9020 fluorescence intensity (a.u.).

On to “CCTTGCTGCCAGATCACTTAATTCTGCAACCTGGTAATATCGGAGTCACCTAGTGCAG”, for which the binding signal is 13100 fluorescence intensity (a.u.). Regarding “GCCTCTGTTCTTCCACTCATTATTATCATTTGCAGCTCCGCGGAGTCACCTAGTGCAG”, the binding signal is 10400 fluorescence intensity (a.u.). In the case of “AGCTGGATTACCCTTTATACATTTTACTTTAATCTCTTTGCGGAGTCACCTAGTGCAG”, the binding signal was 10900 fluorescence intensity (a.u.). Then “ATCCGTATCCAATCCGCGCCGTCCAATCGCTCGATCCAACCGGAGTCACCTAGTGCAG”, with 8770 fluorescence intensity (a.u.); and “TTTCCGGCTTTGTACAAACATGTTTCGTGATGCATACTTTCGGAGTCACCTAGTGCAG”, with 11400 fluorescence intensity (a.u.); and “TTGATACCGTTGACTTTTTAGCACATGTTTGACCATTCATCGGAGTCACCTAGTGCAG”, with 39400 fluorescence intensity (a.u.). Take “GTTCTTTTTTATAAAGTTCTTGACCTGTGTTTCTTTTTTACGGAGTCACCTAGTGCAG”: the binding signal was 12000 fluorescence intensity (a.u.). Take “GATGTTGACTGGTGTGTACTGTTTGTTGTGGTGGCTGCAGCGGAGTCACCTAGTGCAG”: the binding signal was 9030 fluorescence intensity (a.u.). “TTAGTTCTTTAGTTGCAATTATGCGTGTTATACTTTAGCTCGGAGTCACCTAGTGCAG”: the binding signal is 8930 fluorescence intensity (a.u.).

“CTCCTGGTCCCAACTTCGCCCCGCTGAAACACCGCGGCCGCGGAGTCACCTAGTGCAG”: the binding signal was 10200 fluorescence intensity (a.u.). For “CGCTCATCTCATCGCTCTCGCCTCGACTCGCCTCCACGAACGGAGTCACCTAGTGCAG”, the binding signal is 8190 fluorescence intensity (a.u.). Then “CATTATTTGGGTTATATGCTGCGGATGAGAGATGGGCCGCCGGAGTCACCTAGTGCAG”, with 8390 fluorescence intensity (a.u.); and “TCTGCTTCTTCATCCTCGTGCTCTGCTTCTCTCTTCTTCCCGGAGTCACCTAGTGCAG”, with 8980 fluorescence intensity (a.u.); and “TGACCTCAAAATCCATGCATTTTAACAAAATATCACTTTCCGGAGTCACCTAGTGCAG”, with 8300 fluorescence intensity (a.u.). Turning to “AGGGTTATAATTAGATGGGTAGTGGAGGTAGGTAAGAAAACGGAGTCACCTAGTGCAG”, the binding signal is 9550 fluorescence intensity (a.u.). On to “TATTTATCTAGTCTTATATGGGTTTCGGTATATTGAAATACGGAGTCACCTAGTGCAG”, for which the binding signal is 9060 fluorescence intensity (a.u.).

The values above are taken from article PMC7819943, “Rice protein-binding microarrays: a tool to detect cis-acting elements near promoter regions in rice”.
